In article PMC5323126 one finds binding data, which are given here for four molecules.

Sequences of proteins named here, by UniProt entry; tags and fusion partners are left off.
UniProt Q14258: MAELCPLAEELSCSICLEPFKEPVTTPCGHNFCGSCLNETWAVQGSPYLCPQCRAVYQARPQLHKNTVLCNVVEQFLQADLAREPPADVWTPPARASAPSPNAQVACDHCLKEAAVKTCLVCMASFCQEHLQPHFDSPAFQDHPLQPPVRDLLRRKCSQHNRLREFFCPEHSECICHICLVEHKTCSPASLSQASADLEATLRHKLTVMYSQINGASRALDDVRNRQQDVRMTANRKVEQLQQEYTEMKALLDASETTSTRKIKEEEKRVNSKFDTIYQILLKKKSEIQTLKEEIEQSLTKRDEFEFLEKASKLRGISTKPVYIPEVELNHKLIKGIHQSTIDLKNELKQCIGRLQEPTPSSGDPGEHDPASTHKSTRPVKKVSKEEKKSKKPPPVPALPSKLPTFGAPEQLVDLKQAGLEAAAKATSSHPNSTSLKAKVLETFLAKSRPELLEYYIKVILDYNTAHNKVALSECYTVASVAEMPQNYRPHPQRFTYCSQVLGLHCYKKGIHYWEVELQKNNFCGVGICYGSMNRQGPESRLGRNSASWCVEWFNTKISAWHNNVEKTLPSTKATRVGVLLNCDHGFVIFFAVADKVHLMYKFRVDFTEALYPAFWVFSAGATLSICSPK

In assay [1] the target is T1, GST-ERG (UniProt P11308).
T1 sequence: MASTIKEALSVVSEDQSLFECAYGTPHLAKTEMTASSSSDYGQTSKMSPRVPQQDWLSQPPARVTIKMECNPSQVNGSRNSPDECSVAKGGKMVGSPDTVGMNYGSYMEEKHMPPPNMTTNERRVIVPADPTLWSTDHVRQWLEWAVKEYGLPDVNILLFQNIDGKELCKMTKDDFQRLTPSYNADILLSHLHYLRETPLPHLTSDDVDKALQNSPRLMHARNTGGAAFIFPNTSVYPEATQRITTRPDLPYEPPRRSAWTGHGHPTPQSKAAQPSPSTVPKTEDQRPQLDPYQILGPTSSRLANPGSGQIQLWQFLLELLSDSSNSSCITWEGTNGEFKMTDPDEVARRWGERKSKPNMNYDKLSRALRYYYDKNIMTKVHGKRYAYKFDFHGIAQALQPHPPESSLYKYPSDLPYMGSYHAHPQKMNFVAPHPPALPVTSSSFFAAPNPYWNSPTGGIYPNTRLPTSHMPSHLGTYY
Put plainly: pull-down; GST-ERG or GST-tagged CAD domain of ERG as bait; whole VCaP cell extract; endogenous TRIM25 detected; only the target purified.

The target in assay [2] is T2, ERG-V5 (full-length Ets related gene protein, V5-tagged) (UniProt P11308).
T2 sequence: T1 sequence
Put plainly: co-IP; V5-tagged ERG variants ectopically expressed in HEK293T; endogenous TRIM25 co-immunoprecipitated with an antibody against V5.

The target in assay [3] is T2, ERG-V5 (full-length Ets related gene protein, V5-tagged). Put plainly: co-IP; Figure 2A: TRIM25 with ERG-FL, ERG-ΔN39 and ERG-ΔN99; cells, tags and antibody not told for this panel.
Assay [4] addresses T3, ERG-ΔN99 (N-terminally truncated ERG lacking 99 amino acids) (UniProt P11308).
T3 sequence: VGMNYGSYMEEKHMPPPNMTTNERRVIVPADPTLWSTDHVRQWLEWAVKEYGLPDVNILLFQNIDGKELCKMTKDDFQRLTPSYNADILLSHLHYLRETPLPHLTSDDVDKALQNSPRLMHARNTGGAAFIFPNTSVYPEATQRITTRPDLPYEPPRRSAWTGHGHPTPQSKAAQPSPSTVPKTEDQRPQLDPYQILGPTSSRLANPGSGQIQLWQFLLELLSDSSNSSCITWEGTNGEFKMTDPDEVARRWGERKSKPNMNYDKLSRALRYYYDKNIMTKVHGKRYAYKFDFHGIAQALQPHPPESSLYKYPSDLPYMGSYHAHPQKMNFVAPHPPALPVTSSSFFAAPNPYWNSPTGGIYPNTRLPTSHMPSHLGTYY
The assay is described as above.

Assay [5] has as its target T4, ERG-ΔN39 (N-terminally truncated ERG lacking 39 amino acids) (UniProt P11308).
T4 sequence: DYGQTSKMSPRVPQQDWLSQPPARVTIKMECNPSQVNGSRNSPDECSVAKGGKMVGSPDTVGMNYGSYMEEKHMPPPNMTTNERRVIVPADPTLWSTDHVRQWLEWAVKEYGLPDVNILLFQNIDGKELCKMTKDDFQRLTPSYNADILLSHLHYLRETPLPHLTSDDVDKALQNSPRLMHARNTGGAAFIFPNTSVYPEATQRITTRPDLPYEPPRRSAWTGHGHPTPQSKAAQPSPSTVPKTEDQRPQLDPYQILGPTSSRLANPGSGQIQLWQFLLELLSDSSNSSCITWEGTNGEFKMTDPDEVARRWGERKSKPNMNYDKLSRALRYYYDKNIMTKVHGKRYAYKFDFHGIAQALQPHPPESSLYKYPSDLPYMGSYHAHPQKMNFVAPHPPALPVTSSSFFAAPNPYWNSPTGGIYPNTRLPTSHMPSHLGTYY
The assay is described as above.

For assay [6], the target named is TRIM25-Flag (full-length) (UniProt Q14258). Put plainly: co-IP; Flag-tagged TRIM25 variants and full-length ERG-HA ectopically expressed in HEK293T.

Results are given in words; binding and its absence hold for the method and conditions named. In cells and extracts the contact can be indirect. Some results given as binding are weak or reduced against the parent protein; the word gives no strength. For part of these data: Sequences can lack the tags named with a protein.

For “Tripartite motif-containing protein 25 (TRIM25), endogenous in VCaP cells (from UniProt Q14258 1-630)”, the binding result in assay [1] is “binds”.

“TRIM25, endogenous in HEK293T cells (from UniProt Q14258 1-630)”: the binding entry in assay [2] is on record as “binds”.

Turning to “TRIM25 as in the co-immunoprecipitation of Figure 2A (from UniProt Q14258 1-630)”, the binding result in assay [3], in assay [4] and in assay [5] was “binds” throughout.

B1: ERG-HA (full-length HA-tagged ERG) (protein, UniProt P11308 1-479)
chain: T1 sequence
Consider B1, for which the binding result in assay [6] is given as “binds”.
